Reference: PubChem BioAssay AID434936 (National Center for Advancing Translational Sciences (NCATS), 2010)
This list was built around the results that the source calls inconclusive (neither active nor inactive); the mix of calls is not that of the screen. A potency beside an inconclusive call is a rough fit, not a confirmed value. Activity calls are given as the source filed them. Calls come from the whole dose curve; as a rule, active = well fitted curve in either direction with a large enough effect; inconclusive = small, poorly fitted or top-dose-only effect; inactive = flat fitted curve, though single readings scatter.

Chains of the proteins cited; added tags and fusions are not shown. Lines headed by an entry give the natural chain unless they say otherwise; changes in a name come on top.
UniProt Q6W5P4: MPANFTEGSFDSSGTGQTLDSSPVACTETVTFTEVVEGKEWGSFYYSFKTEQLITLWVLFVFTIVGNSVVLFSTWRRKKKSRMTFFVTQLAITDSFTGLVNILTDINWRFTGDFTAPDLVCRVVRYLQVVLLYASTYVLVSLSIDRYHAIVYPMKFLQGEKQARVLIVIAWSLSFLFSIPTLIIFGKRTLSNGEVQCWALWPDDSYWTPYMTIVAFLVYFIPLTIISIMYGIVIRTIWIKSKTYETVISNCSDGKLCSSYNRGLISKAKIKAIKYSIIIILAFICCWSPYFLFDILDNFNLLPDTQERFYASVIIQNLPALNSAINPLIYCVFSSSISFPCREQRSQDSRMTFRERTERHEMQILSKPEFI

The compounds below were run against Neuropeptide S receptor (Homo sapiens) (UniProt Q6W5P4) (assay: Confirmation Concentration-Response Assay for Antagonists of the Neuropeptide S Receptor: Robust Characterization of cAMP Signal Transduction). Settings: CHO-NPSR cells, NPS-stimulated cAMP TR-FRET; series mostly up to 50.7 µM.
Excerpt: NIH Chemical Genomics Center [NCGC] NIH Molecular Libraries Probe Production centers Network [MLPCN] MLPCN Grant: X01-DA026210-01 Assay Submitter (PI): Heilig, Markus Alexander NCGC Assay Overview: Neuropeptide S receptor (NPSR), previously known as GPR154, is a recently de-orphanized G protein coupled receptor. Its endogenous ligand is the 20 amino acids peptide Neuropeptide S (NPS). […] NPS and its receptor are found in various tissues. Specifically they are highly expressed in brain areas that have been implicated in modulation of arousal, stress and anxiety. Central administration of NPS in mice produces an unusual profile of activity by inducing wakefulness and arousal, while at the same time suppressing anxiety. Therefore, NPSR may represent a novel drug target for the treatment of sleep and anxiety disorders. To identify NPSR antagonists, we developed a cell-based cAMP assay. NPS can stimulate the production of cAMP in Chinese hamster ovary cells stably expressing NPS receptor. This change in intracellular cAMP level can be detected by a homogeneous LANCE cAMP assay based on the TR-FRET (time resolved fluorescence resonance energy transfer) between a europium-labeled cAMP tracer complex and a cAMP-specific antibody labeled with Alexa Fluor 647. The europium-labeled cAMP tracer complex is formed by the tight interaction between Biotin-cAMP (b-cAMP) and streptavidin labeled with Europium-W8044 chelate (Eu-SA). Light pulse at 320 nm excites the europium of the cAMP tracer and the energy emitted is transferred to the Alexa molecule bound to the cAMP antibody, generating a TR-FRET signal at 665 nm. Residual energy from the europium will produce a light at 620 nm. The native unlabeled cAMP from cell lysates competes with the europium-cAMP tracer for antibody binding and reversely reduces the emission signal of Alexa by interrupting FRET between the two labeled molecules. Both emission signals from the FRET donor (620 nm) and the acceptor (665 nm) can be detected by a plate reader in the TRF mode. Expression of result in fluorescence ratio (665 nm/620 nm) helps to normalize differences due to cell density and reagent dispensing. This assay was successfully optimized to a 1536-well plate format. Select compounds from the primary screen (AID 1461) were chosen for confirmation based on potency, efficacy, SAR, and activity across other assays in PubChem and at NCGC. Other compounds are analogs of active compounds from the primary screen. This particular assay uses a high density of sampling across concentration-response space to establish more confidence estimates of potency.
NCGC Assay Protocol Summary: A Chinese hamster ovary (CHO) cell line stably expressing the NPS receptor (CHO-NPSR) was obtained from Dr. Heilig lab at NIAAA and maintained in F-12 Kaighn's media (Invitrogen, Carlsbad, CA, 21127) supplemented with 10 % FBS, 100 units/ml penicillin, 100 ug/ml streptomycin and 250 ug/ml geneticin at 37C, 5% CO2 in a humidified atmosphere. Before the assay, aliquots of cells were frozen and stored at -135C. The assay was performed in 1536-well format. Data are reported for both the ratio of the two emission wavelengths, and also for the component 'donor' channel, Em2=620. […] IC50 values were determined from concentration-response data modeled with the standard Hill equation. NPS 1536-well assay protocol: (1) Fresh or frozen CHO-NPSR cells were suspended in F-12 Kaighn's media supplemented with 10 % FBS, 100 units/ml penicillin and 100 ug/ml streptomycin. Cells were plated at 4 ul/well (1200 cells) to white, tissue culture treated 1536-well plates, and then cultured at 37C, 5 % CO2 for 16 to 30 hours. (2) Add 23 nl/well of compound in DMSO solution. The final titration for each compound was between 0.6 nM and 46 uM. […]

| Structure (SMILES) | Potency |
| --- | --- |
| S=P(c1ccccc1)(c1ccccc1)c1nc(CCCc2ccccc2)n2ccccc12 | inactive |
| N=c1c2c(ccn1CCCCc1ccccc1)Oc1ccc3ccccc3c1C2c1ccccc1 (stereo unspecified) | inconclusive: 3.07 µM [inhibitor, full curve] |
| COc1ccc(C2c3c(nc(C)[nH]c3=O)Oc3ccc4ccccc4c32)cc1OC (stereo unspecified) | inconclusive: 27.4 µM [inhibitor, partial curve] |
| COc1ccc(C2c3c(n(CCc4ccccc4)cnc3=N)Oc3ccc4ccccc4c32)cc1OC (stereo unspecified) | inconclusive: 17.3 µM [inhibitor, partial curve, poor fit] |
| COc1ccc(C2c3c(nc(Cc4ccccc4)[nH]c3=O)Oc3ccc4ccccc4c32)cc1OC (stereo unspecified) | inactive |
| COc1cccc(C2C(C#N)=C(NC(=O)NCc3ccccc3)Oc3ccc4ccccc4c32)c1 (stereo unspecified) | inconclusive: 13.7 µM [inhibitor, partial curve] |
| COc1cccc(C2c3c(ncn(-c4ccccc4C#N)c3=N)Oc3ccc4ccccc4c32)c1 (stereo unspecified) | inconclusive: 30.7 µM [inhibitor, single point] |
| Cc1nc2ccccn2c1C(O)(c1ccccc1)c1ccccc1 | inactive |
| COc1ccc(C2c3c(n(Cc4ccccc4)cnc3=N)Oc3ccc4ccccc4c32)cc1OC (stereo unspecified) | inconclusive: 24.4 µM [inhibitor, partial curve] |
| COc1ccc(C2c3c(N)nc(CCCc4ccccc4)nc3Oc3ccc4ccccc4c32)cc1OC (stereo unspecified) | inconclusive: 15.4 µM [inhibitor, full curve] |
| COc1cccc(C2c3c(ncn(-c4cccnc4)c3=N)Oc3ccc4ccccc4c32)c1 (stereo unspecified) | active: 8.67 µM |
| COc1ccc(C2c3c(N)nc(Cc4ccccc4)nc3Oc3ccc4ccccc4c32)cc1OC (stereo unspecified) | inconclusive: 24.4 µM [inhibitor, partial curve] |
| O=C(Nc1ncnc2c1C(c1ccccc1)c1c(ccc3ccccc13)O2)c1ccccc1 (stereo unspecified) | inconclusive: 4.87 µM [inhibitor, full curve] |
| COc1cccc(C2c3c(ncn(-c4ccc(NC(C)=O)cc4)c3=N)Oc3ccc4ccccc4c32)c1 (stereo unspecified) | active: 12.2 µM |
| COc1ccc(C2c3ccc(OCc4ccccc4)cc3Oc3ncn(CCN4CCOCC4)c(=N)c32)cc1OC (stereo unspecified) | inconclusive: 19.4 µM [inhibitor, partial curve, poor fit] |
| COc1ccc(C2c3c(nc(CCCc4ccccc4)[nH]c3=O)Oc3ccc4ccccc4c32)cc1OC (stereo unspecified) | inactive |

No new results follow: an excerpt of the list.

| Structure (SMILES) | Potency |
| --- | --- |
| COc1ccc(C2c3c(nc(Cc4ccccc4)[nH]c3=O)Oc3ccc4ccccc4c32)cc1OC (stereo unspecified) | inactive |
| COc1cccc(C2C(C#N)=C(NC(=O)NCc3ccccc3)Oc3ccc4ccccc4c32)c1 (stereo unspecified) | inconclusive: 13.7 µM [inhibitor, partial curve] |
